Experimental data published in publication PMC10932423.
No constants are given. Whether binding was seen depends on the method and setting. Some entries that bind do so weakly or less than the wild type.

The chains behind the UniProt entries cited, without tags or fusion partners. Where a name states a change or a piece, a line headed by the entry shows the natural chain unless it says otherwise. A line that says so, or that is headed by a name, gives the form on record, which may keep a tag or linker. Residues count along the entry.
GST-tagged LRR domain of polycystin-1 (GST-LRR WT) (P98161, residues 24-176): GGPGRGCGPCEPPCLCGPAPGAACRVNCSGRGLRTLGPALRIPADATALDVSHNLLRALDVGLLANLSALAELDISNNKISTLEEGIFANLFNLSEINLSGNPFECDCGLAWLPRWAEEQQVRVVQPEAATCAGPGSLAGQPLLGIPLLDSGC
GST-tagged LRR domain of polycystin-1 with the E107A mutation (P98161, form named): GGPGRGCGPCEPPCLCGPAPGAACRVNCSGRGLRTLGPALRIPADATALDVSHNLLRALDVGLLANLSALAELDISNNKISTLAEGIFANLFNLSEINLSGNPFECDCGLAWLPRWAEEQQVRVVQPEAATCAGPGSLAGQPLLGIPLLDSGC
UniProt O15230: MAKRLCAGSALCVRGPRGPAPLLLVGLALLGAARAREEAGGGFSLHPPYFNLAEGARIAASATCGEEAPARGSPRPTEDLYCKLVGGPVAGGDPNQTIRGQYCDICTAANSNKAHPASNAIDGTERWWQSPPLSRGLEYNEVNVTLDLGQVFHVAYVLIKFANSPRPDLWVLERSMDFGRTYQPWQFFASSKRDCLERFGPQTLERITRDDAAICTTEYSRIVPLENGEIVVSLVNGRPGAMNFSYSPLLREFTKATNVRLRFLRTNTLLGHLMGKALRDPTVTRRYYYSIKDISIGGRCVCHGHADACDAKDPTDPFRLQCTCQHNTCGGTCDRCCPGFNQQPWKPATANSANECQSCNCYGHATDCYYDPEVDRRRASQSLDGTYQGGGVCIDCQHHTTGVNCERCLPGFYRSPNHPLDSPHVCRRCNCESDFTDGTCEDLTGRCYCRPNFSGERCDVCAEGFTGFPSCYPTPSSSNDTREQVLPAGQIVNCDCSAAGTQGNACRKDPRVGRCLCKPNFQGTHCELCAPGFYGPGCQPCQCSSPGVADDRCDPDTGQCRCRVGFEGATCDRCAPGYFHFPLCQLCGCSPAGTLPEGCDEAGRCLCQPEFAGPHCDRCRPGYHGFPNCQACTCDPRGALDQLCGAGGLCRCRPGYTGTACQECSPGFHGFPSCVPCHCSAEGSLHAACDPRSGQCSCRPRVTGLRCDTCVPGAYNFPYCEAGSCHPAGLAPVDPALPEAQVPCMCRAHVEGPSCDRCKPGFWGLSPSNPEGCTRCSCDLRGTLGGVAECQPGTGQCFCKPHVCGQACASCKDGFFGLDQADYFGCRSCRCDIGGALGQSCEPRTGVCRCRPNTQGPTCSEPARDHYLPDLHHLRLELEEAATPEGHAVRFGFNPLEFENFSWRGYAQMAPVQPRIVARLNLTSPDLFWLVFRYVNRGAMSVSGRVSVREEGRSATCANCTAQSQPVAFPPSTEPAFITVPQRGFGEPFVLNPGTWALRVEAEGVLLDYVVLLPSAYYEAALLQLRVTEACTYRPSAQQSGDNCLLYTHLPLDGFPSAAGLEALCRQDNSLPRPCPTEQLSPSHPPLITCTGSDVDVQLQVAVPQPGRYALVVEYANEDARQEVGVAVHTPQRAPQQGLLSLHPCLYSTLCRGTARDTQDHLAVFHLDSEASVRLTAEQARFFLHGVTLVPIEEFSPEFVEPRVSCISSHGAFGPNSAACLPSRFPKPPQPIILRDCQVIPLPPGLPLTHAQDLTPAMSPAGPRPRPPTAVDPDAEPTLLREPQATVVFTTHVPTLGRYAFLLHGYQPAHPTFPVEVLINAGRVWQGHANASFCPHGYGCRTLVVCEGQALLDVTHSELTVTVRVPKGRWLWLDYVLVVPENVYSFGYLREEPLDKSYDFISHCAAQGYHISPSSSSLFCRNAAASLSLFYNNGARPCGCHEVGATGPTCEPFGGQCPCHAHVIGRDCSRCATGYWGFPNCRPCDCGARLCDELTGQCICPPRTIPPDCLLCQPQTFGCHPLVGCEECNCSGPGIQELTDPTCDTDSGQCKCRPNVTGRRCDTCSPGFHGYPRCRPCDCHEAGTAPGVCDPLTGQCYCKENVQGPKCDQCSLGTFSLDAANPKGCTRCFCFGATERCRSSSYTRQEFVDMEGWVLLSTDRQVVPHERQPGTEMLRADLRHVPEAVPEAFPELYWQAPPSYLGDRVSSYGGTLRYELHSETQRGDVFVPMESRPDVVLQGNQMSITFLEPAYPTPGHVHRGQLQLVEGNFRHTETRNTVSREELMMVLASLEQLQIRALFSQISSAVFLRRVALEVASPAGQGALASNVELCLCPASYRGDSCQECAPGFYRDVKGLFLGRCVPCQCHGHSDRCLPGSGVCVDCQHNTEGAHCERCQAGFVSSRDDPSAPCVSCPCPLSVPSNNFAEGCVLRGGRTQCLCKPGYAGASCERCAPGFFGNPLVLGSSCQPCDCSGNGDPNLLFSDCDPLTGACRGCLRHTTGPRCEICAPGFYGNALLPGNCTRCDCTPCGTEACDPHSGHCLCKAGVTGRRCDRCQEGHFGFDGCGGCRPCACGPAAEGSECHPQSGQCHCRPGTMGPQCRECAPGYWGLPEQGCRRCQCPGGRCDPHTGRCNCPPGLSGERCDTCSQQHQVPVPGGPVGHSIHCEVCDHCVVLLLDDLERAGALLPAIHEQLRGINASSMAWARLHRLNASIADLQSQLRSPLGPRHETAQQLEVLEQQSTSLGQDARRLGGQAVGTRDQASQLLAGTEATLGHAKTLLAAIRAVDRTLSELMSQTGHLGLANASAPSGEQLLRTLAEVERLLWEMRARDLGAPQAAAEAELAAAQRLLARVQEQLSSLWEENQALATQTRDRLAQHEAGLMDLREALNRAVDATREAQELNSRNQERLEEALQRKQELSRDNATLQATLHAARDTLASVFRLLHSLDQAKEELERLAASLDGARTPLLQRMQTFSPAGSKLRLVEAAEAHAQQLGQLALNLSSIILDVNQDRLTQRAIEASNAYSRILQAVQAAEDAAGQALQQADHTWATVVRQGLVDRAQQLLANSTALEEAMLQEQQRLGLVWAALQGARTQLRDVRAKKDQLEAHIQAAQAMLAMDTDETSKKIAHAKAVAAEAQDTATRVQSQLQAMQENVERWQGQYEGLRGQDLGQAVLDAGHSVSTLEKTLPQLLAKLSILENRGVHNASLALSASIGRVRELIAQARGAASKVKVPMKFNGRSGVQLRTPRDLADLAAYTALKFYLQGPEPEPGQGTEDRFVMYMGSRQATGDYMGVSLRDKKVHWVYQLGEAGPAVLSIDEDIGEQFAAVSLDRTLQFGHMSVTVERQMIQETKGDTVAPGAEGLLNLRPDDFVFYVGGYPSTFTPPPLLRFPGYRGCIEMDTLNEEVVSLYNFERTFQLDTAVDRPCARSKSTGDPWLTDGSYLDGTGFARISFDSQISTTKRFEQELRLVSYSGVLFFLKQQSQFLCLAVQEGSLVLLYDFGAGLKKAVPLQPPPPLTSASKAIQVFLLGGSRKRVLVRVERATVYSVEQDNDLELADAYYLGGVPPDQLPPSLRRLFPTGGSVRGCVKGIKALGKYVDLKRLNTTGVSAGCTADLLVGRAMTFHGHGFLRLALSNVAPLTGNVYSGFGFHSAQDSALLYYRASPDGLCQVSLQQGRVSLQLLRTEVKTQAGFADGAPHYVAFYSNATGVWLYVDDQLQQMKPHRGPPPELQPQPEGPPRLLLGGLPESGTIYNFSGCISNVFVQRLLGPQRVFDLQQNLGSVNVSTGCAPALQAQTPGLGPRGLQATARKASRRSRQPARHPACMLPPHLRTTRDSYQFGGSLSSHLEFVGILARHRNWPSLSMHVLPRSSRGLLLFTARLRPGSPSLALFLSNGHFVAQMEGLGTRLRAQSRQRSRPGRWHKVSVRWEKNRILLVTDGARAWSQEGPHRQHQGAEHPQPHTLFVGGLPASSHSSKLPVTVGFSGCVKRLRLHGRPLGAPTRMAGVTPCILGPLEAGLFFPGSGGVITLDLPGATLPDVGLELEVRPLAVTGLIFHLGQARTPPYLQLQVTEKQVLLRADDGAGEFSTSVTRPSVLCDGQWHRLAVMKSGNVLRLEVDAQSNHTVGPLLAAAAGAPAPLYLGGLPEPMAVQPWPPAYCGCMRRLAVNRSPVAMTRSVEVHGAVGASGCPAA

What was measured:
[1] = biological target: GST-tagged LRR domain of polycystin-1 with the E107A mutation (human) (UniProt P98161); experiment: pull-down; co-purification: purified GST-LRR (or GST, or mutant) bound to glutathione resin; laminin-511 (~50 ug) added, 2 h at 4 °C; 50 mM Tris-HCl pH 8.0, 200 mM NaCl, 1 mM DTT; washed twice; eluted with 20 mM reduced glutathione; both purified
[2] = biological target: GST-tagged LRR domain of polycystin-1 (GST-LRR WT) (human) (UniProt P98161); experiment: as above

Substance: laminin-511 (α5β1γ1) (from UniProt O15230 36-3695; P07942 22-1786; P11047 34-1609) (complex)
- binding [1]: no binding (tested: ~50 ug laminin-511 added)
- binding [2]: binds
